Measured values taken from publication PMC7841112.

How the values were obtained:
[1] = molecular target: T1, Canonical eukaryotic translation elongation factor eEF1Bδ1 (mouse (endogenous in Neuro-2a)) (UniProt P57776); test: co-IP; Neuro-2a cells lysed in NP lysis buffer (50 mM Tris-HCl pH 7.5, 120 mM NaCl, 0.5% NP-40, 1 mM EDTA); extract incubated with anti-EEF1D (eEF1Bδ) antibody overnight at 4°C, Protein A or G Sepharose; Western blot of the immunoprecipitate
T1 sequence: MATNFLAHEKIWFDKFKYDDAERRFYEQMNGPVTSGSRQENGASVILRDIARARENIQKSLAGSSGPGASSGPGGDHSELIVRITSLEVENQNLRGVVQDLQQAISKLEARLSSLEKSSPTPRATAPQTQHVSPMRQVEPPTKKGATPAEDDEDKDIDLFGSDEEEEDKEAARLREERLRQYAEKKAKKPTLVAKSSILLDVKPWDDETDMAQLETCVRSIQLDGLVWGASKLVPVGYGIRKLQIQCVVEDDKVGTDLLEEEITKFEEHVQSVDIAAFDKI

[2] = molecular target: T2, Eukaryotic translation elongation factor 1BδL (eEF1BδL) (mouse (endogenous in Neuro-2a)) (UniProt P57776); test: as above
T2 sequence: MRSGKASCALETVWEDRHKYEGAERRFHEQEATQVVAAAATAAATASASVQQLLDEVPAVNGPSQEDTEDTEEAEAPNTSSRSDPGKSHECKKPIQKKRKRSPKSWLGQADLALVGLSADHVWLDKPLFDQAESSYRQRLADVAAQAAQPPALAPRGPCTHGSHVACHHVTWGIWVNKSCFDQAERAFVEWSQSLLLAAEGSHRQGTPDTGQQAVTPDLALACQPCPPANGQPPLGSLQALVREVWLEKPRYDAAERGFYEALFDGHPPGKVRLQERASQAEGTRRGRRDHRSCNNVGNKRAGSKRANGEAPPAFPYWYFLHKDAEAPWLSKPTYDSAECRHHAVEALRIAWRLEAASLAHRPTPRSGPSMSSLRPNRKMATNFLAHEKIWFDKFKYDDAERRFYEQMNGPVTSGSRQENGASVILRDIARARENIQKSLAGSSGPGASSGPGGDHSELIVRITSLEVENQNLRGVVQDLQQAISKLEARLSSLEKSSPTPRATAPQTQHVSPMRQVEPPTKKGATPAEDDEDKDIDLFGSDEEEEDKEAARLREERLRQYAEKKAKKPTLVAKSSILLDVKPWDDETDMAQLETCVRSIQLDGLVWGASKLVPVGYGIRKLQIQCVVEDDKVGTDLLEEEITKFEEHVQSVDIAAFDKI

| binding [1] | binding [2] | Substance |
| --- | --- | --- |
| binds | binds | Protein phosphatase 1 (PP1) (mouse (endogenous in Neuro-2a)) (enzyme) |
| no binding | no binding | Protein phosphatase 2A (PP2A) (mouse (endogenous in Neuro-2a)) (enzyme) |

These are yes or no findings as the source states them, for the method shown. Binding seen in cells or lysates may run through a third protein. Binding can be weak; no strength is given.
